Measured values taken from publication PMC10511046.
Results are given in words; binding and its absence hold for the method and conditions named. In cells and extracts the contact can be indirect. Some entries that bind do so weakly or less than the wild type.

Amino acid sequences for entries named in this document (tags omitted). Residues count along the entry.
UniProt Q69ZK9, residues 15-836: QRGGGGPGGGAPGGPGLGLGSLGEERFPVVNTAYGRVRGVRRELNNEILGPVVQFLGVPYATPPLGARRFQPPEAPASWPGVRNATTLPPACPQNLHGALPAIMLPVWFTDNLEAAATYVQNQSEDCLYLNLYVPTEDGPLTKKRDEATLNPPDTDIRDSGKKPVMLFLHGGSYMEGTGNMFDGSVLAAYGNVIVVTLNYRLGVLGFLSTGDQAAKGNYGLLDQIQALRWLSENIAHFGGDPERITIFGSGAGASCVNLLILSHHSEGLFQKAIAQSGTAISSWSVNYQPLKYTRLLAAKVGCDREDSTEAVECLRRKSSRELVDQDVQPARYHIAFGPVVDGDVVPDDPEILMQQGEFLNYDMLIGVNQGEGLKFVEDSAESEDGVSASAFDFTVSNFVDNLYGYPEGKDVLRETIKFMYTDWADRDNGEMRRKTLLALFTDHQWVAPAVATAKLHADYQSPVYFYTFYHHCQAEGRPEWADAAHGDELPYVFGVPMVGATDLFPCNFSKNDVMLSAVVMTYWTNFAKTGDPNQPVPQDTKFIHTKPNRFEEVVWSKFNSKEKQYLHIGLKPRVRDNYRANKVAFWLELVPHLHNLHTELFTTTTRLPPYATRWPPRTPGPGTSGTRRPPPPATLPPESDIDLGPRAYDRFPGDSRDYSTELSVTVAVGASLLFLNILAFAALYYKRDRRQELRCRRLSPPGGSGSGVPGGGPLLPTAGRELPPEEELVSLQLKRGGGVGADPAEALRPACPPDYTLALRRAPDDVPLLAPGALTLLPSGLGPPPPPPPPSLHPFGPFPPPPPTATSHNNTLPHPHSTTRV

How the values were obtained:
[1] = molecular target: T1, Immunoglobulin superfamily member 9b (mouse (endogenous in mouse brain)) (UniProt E9PZ19); test: co-IP; whole mouse brain lysate in RIPA buffer; immunoprecipitation with anti-Prickle2 or anti-Igsf9b antibody, immunoblotting with specific antibodies
T1 sequence: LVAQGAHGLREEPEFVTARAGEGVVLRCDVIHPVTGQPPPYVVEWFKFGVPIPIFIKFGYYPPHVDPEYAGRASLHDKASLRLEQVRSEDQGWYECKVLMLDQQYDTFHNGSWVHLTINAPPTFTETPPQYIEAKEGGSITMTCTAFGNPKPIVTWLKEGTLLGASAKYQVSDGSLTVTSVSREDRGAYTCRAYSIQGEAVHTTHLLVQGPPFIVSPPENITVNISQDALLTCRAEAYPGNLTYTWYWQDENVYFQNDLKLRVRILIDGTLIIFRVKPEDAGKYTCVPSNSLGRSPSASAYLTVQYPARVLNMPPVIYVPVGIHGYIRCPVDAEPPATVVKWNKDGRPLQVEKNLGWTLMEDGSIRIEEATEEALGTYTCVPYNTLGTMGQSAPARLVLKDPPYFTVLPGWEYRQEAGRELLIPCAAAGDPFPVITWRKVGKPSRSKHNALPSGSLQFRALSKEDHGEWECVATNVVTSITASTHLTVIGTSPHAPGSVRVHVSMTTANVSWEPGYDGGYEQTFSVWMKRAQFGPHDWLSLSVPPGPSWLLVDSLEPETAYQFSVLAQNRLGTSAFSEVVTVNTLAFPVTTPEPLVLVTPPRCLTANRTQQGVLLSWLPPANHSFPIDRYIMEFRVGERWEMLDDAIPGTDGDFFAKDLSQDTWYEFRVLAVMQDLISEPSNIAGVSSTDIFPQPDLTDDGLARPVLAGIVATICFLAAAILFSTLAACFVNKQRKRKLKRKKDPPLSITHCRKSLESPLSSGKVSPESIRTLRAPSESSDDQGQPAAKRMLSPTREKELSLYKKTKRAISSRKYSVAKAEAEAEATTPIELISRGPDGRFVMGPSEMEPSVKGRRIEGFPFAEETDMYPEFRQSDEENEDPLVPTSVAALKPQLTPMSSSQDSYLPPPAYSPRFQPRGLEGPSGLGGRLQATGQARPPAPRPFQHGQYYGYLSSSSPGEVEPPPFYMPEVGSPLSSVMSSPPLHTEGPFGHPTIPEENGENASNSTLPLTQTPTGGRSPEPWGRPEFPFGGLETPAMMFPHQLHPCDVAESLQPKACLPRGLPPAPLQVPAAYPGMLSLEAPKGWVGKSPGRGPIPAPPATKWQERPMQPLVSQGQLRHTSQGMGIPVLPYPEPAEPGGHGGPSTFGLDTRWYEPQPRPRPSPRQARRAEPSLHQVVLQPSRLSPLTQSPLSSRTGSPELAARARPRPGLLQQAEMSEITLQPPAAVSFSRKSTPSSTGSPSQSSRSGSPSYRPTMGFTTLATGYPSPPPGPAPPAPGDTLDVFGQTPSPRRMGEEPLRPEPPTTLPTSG

[2] = molecular target: T2, Prickle2 (mouse (endogenous in mouse brain)) (UniProt Q80Y24); test: as above
T2 sequence: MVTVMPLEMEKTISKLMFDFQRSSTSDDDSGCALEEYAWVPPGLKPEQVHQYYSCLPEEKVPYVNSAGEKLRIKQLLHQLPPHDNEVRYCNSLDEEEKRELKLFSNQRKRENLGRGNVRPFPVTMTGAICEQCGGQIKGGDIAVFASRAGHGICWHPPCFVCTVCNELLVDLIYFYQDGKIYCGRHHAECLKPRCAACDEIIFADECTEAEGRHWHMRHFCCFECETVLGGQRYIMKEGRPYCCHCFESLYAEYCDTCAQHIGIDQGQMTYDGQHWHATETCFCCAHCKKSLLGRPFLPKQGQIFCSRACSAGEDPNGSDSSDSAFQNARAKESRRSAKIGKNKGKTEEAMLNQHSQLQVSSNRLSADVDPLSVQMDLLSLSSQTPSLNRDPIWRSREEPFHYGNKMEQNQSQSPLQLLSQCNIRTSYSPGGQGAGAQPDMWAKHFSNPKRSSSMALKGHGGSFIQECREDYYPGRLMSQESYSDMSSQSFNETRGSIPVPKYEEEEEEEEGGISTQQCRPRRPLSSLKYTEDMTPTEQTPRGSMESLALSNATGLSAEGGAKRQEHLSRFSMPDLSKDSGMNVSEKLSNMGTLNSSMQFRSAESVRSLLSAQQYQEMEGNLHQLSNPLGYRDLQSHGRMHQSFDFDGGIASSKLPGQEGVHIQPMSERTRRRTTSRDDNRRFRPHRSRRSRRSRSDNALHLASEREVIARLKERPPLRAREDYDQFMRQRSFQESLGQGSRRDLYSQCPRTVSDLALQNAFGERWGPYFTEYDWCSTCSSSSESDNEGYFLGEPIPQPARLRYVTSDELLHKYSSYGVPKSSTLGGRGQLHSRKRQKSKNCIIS

## Neuroligin-2 (from UniProt Q69ZK9 15-836)
[1]
  binding: binds

B1: Immunoglobulin superfamily member 9b (protein, UniProt E9PZ19 18-1328)
chain: LVAQGAHGLREEPEFVTARAGEGVVLRCDVIHPVTGQPPPYVVEWFKFGVPIPIFIKFGYYPPHVDPEYAGRASLHDKASLRLEQVRSEDQGWYECKVLMLDQQYDTFHNGSWVHLTINAPPTFTETPPQYIEAKEGGSITMTCTAFGNPKPIVTWLKEGTLLGASAKYQVSDGSLTVTSVSREDRGAYTCRAYSIQGEAVHTTHLLVQGPPFIVSPPENITVNISQDALLTCRAEAYPGNLTYTWYWQDENVYFQNDLKLRVRILIDGTLIIFRVKPEDAGKYTCVPSNSLGRSPSASAYLTVQYPARVLNMPPVIYVPVGIHGYIRCPVDAEPPATVVKWNKDGRPLQVEKNLGWTLMEDGSIRIEEATEEALGTYTCVPYNTLGTMGQSAPARLVLKDPPYFTVLPGWEYRQEAGRELLIPCAAAGDPFPVITWRKVGKPSRSKHNALPSGSLQFRALSKEDHGEWECVATNVVTSITASTHLTVIGTSPHAPGSVRVHVSMTTANVSWEPGYDGGYEQTFSVWMKRAQFGPHDWLSLSVPPGPSWLLVDSLEPETAYQFSVLAQNRLGTSAFSEVVTVNTLAFPVTTPEPLVLVTPPRCLTANRTQQGVLLSWLPPANHSFPIDRYIMEFRVGERWEMLDDAIPGTDGDFFAKDLSQDTWYEFRVLAVMQDLISEPSNIAGVSSTDIFPQPDLTDDGLARPVLAGIVATICFLAAAILFSTLAACFVNKQRKRKLKRKKDPPLSITHCRKSLESPLSSGKVSPESIRTLRAPSESSDDQGQPAAKRMLSPTREKELSLYKKTKRAISSRKYSVAKAEAEAEATTPIELISRGPDGRFVMGPSEMEPSVKGRRIEGFPFAEETDMYPEFRQSDEENEDPLVPTSVAALKPQLTPMSSSQDSYLPPPAYSPRFQPRGLEGPSGLGGRLQATGQARPPAPRPFQHGQYYGYLSSSSPGEVEPPPFYMPEVGSPLSSVMSSPPLHTEGPFGHPTIPEENGENASNSTLPLTQTPTGGRSPEPWGRPEFPFGGLETPAMMFPHQLHPCDVAESLQPKACLPRGLPPAPLQVPAAYPGMLSLEAPKGWVGKSPGRGPIPAPPATKWQERPMQPLVSQGQLRHTSQGMGIPVLPYPEPAEPGGHGGPSTFGLDTRWYEPQPRPRPSPRQARRAEPSLHQVVLQPSRLSPLTQSPLSSRTGSPELAARARPRPGLLQQAEMSEITLQPPAAVSFSRKSTPSSTGSPSQSSRSGSPSYRPTMGFTTLATGYPSPPPGPAPPAPGDTLDVFGQTPSPRRMGEEPLRPEPPTTLPTSG
[2]
  binding: binds

B2: Prickle2 (protein, UniProt Q80Y24 1-845)
chain: MVTVMPLEMEKTISKLMFDFQRSSTSDDDSGCALEEYAWVPPGLKPEQVHQYYSCLPEEKVPYVNSAGEKLRIKQLLHQLPPHDNEVRYCNSLDEEEKRELKLFSNQRKRENLGRGNVRPFPVTMTGAICEQCGGQIKGGDIAVFASRAGHGICWHPPCFVCTVCNELLVDLIYFYQDGKIYCGRHHAECLKPRCAACDEIIFADECTEAEGRHWHMRHFCCFECETVLGGQRYIMKEGRPYCCHCFESLYAEYCDTCAQHIGIDQGQMTYDGQHWHATETCFCCAHCKKSLLGRPFLPKQGQIFCSRACSAGEDPNGSDSSDSAFQNARAKESRRSAKIGKNKGKTEEAMLNQHSQLQVSSNRLSADVDPLSVQMDLLSLSSQTPSLNRDPIWRSREEPFHYGNKMEQNQSQSPLQLLSQCNIRTSYSPGGQGAGAQPDMWAKHFSNPKRSSSMALKGHGGSFIQECREDYYPGRLMSQESYSDMSSQSFNETRGSIPVPKYEEEEEEEEGGISTQQCRPRRPLSSLKYTEDMTPTEQTPRGSMESLALSNATGLSAEGGAKRQEHLSRFSMPDLSKDSGMNVSEKLSNMGTLNSSMQFRSAESVRSLLSAQQYQEMEGNLHQLSNPLGYRDLQSHGRMHQSFDFDGGIASSKLPGQEGVHIQPMSERTRRRTTSRDDNRRFRPHRSRRSRRSRSDNALHLASEREVIARLKERPPLRAREDYDQFMRQRSFQESLGQGSRRDLYSQCPRTVSDLALQNAFGERWGPYFTEYDWCSTCSSSSESDNEGYFLGEPIPQPARLRYVTSDELLHKYSSYGVPKSSTLGGRGQLHSRKRQKSKNCIIS
[1]
  binding: binds
